# Data taken from the supplement of paper PMC8728848.
# This is one part of the list.
# B1: Protein L(A-C2) (Finegoldia magna), Q51912 (protein)
# chain: ADEPIDLEKLEEKRDKENVGNLPKFDNEVKDGSENPMAKYPDFDDEASTRFETENNEFEEKKVVSDNFFDQSEHPFVENKEETPETPETDSEEEVTIKANLIFANGSTQTAEFKGTFEKATSEAYAYADTLKKDNGEYTVDVADKGYTLNIKFAGKEKTPEEPKEEVTIKANLIYADGKTQTAEFKGTFEEATAEAYRYADALKKDNGEYTVDVADKGYTLNIKFAGKEKTPEEPKEEVTIKANLIYADGKTQTAEFKGTFEEATAEAYRYADLLAKENGKYTVDVADKGYTLNIKFAGKEKTPEEPKEEVTIKANLIYADGKTQTAEFKGTFAEATAEAYRYADLLAKENGKYTADLEDGGYTINIRFAGKKVDEKPEEKEQVTIKENIYFEDGTVQTATFKGTFAEATAEAYRYADLLSKEHGKYTADLEDGGYTINIRFAGKEEPEETPEKPEVQDGYASYEEAEAAAKEALKNDDVNKSYTIRQGADGRYYYVLSPVEAEEEKPEAQNGYATYEEAEAAAKKALENDPINKSYSIRQGADGRYYYVLSPVEAE
# Key:
# Assay in all cases: glycan array binding signal (z-score within array); higher = stronger binding
# Conditions in all cases: glycan notation: IUPAC condensed, linker removed
# [1] = molecular target: Gal(b1-3)GlcNAc(b1-2)Man(a1-3)[Gal(b1-3)GlcNAc(b1-2)Man(a1-6)]Man(b1-4)GlcNAc(b1-4)[Fuc(a1-6)]GlcNAc
# Outline: (§1)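 Glycan array data were curated from 3228 arrays in the Consortium for Functional Glycomics database and kept only where the protein sequence was available. Glycan names were converted to IUPAC-condensed notation, and columns mapping to the same glycan were averaged. The binding signal is a within-array Z-score, averaged across arrays of the same protein sequence at different concentrations or buffers and across linkers. Negative Z-scores can be read as non-binding.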
# [2] = molecular target: Gal(b1-3)GlcNAc(b1-2)Man(a1-3)[GlcNAc(b1-4)][Gal(b1-3)GlcNAc(b1-2)Man(a1-6)]Man(b1-4)GlcNAc(b1-4)GlcNAc
# Outline: as §1
# [3] = molecular target: Gal(b1-3)GlcNAc(b1-2)[Gal(b1-3)GlcNAc(b1-6)]Man(a1-6)[Gal(b1-3)GlcNAc(b1-2)Man(a1-3)]Man(b1-4)GlcNAc(b1-4)GlcNAc
# Outline: as §1
# [4] = molecular target: Gal(b1-3)GlcNAc(b1-3)Gal(b1-3)GlcNAc
# Outline: as §1
# [5] = molecular target: Gal(b1-3)GlcNAc(b1-3)Gal(b1-4)Glc
# Outline: as §1
# [6] = molecular target: Gal(b1-3)GlcNAc(b1-3)Gal(b1-4)GlcNAc
# Outline: as §1
# [7] = molecular target: Gal(b1-3)GlcNAc(b1-3)Gal(b1-4)GlcNAc(b1-2)Man(a1-3)[Gal(b1-3)GlcNAc(b1-3)Gal(b1-4)GlcNAc(b1-2)Man(a1-6)]Man(b1-4)GlcNAc(b1-4)GlcNAc
# Outline: as §1
# [8] = molecular target: Gal(b1-3)GlcNAc(b1-3)Gal(b1-4)GlcNAc(b1-2)[Gal(b1-3)GlcNAc(b1-3)Gal(b1-4)GlcNAc(b1-6)]Man(a1-6)[Gal(b1-3)GlcNAc(b1-3)Gal(b1-4)GlcNAc(b1-2)Man(a1-3)]Man(b1-4)GlcNAc(b1-4)[Fuc(a1-6)]GlcNAc
# Outline: as §1
# [9] = molecular target: Gal(b1-3)GlcNAc(b1-3)Gal(b1-4)GlcNAc(b1-3)Gal(b1-4)GlcNAc(b1-2)[Gal(b1-3)GlcNAc(b1-3)Gal(b1-4)GlcNAc(b1-3)Gal(b1-4)GlcNAc(b1-6)]Man(a1-6)[Gal(b1-3)GlcNAc(b1-3)Gal(b1-4)GlcNAc(b1-3)Gal(b1-4)GlcNAc(b1-2)Man(a1-3)]Man(b1-4)GlcNAc(b1-4)[Fuc(a1-6)]GlcNAc
# Outline: as §1
# [10] = molecular target: Gal(b1-3)GlcNAc(b1-3)Gal(b1-4)GlcNAc(b1-6)[Gal(b1-3)GlcNAc(b1-3)]Gal(b1-4)Glc
# Outline: as §1
# [11] = molecular target: Gal(b1-3)GlcNAc(b1-3)Gal(b1-4)[Fuc(a1-3)]GlcNAc(b1-6)[Gal(b1-3)GlcNAc(b1-3)]Gal(b1-4)Glc
# Outline: as §1
# [12] = molecular target: Gal(b1-3)GlcNAc(b1-3)GalNAc
# Outline: as §1
# [13] = molecular target: Gal(b1-3)GlcNAc(b1-6)Gal(b1-4)GlcNAc
# Outline: as §1
# [14] = molecular target: Gal(b1-3)GlcNAc(b1-6)GalNAc
# Outline: as §1
# [15] = molecular target: Gal(b1-3)GlcNAc(b1-6)[Gal(b1-3)]GalNAc
# Outline: as §1
# Gal(b1-3)GlcNAc6S = molecular target: Gal(b1-3)GlcNAc6S
# Outline: as §1
# [16] = molecular target: Gal(b1-3)[Fuc(a1-4)]GlcNAc
# Outline: as §1
# [17] = molecular target: Gal(b1-3)[Fuc(a1-4)]GlcNAc(b1-2)Man
# Outline: as §1
# [18] = molecular target: Gal(b1-3)[Fuc(a1-4)]GlcNAc(b1-2)Man(a1-3)[Gal(b1-3)[Fuc(a1-4)]GlcNAc(b1-2)Man(a1-6)]Man(b1-4)GlcNAc(b1-4)[Fuc(a1-6)]GlcNAc
# Outline: as §1
# [19] = molecular target: Gal(b1-3)[Fuc(a1-4)]GlcNAc(b1-3)Gal(b1-3)[Fuc(a1-4)]GlcNAc
# Outline: as §1
# [20] = molecular target: Gal(b1-3)[Fuc(a1-4)]GlcNAc(b1-3)Gal(b1-4)GlcNAc
# Outline: as §1
# [21] = molecular target: Gal(b1-3)[Fuc(a1-4)]GlcNAc(b1-3)Gal(b1-4)[Fuc(a1-3)]GlcNAc
# Outline: as §1
# [22] = molecular target: Gal(b1-3)[Fuc(a1-4)]GlcNAc(b1-6)GalNAc
# Outline: as §1
# [23] = molecular target: Gal(b1-3)[GlcNAc(b1-6)]GalNAc
# Outline: as §1
# [24] = molecular target: Gal(b1-3)[Neu5Ac(a2-6)]GalNAc
# Outline: as §1
# [25] = molecular target: Gal(b1-3)[Neu5Ac(a2-6)]GlcNAc(b1-4)Gal(b1-4)Glc
# Outline: as §1
# [26] = molecular target: Gal(b1-3)[Neu5Ac(b2-6)]GalNAc
# Outline: as §1
# Gal(b1-4)Gal = molecular target: Gal(b1-4)Gal
# Outline: as §1
# [27] = molecular target: Gal(b1-4)GalNAc(a1-3)[Fuc(a1-2)]Gal(b1-4)GlcNAc
# Outline: as §1
# [28] = molecular target: Gal(b1-4)GalNAc(b1-3)[Fuc(a1-2)]Gal(b1-4)GlcNAc
# Outline: as §1
binder,measurement,setting,value
B1,glycan array binding signal (z-score),[1],0.716
same,glycan array binding signal (z-score),[2],0.568
same,glycan array binding signal (z-score),[3],-0.452
same,glycan array binding signal (z-score),[4],0.408
same,glycan array binding signal (z-score),[5],-0.501
same,glycan array binding signal (z-score),[6],-0.169
same,glycan array binding signal (z-score),[7],0.059
same,glycan array binding signal (z-score),[8],1.58
same,glycan array binding signal (z-score),[9],1.35
same,glycan array binding signal (z-score),[10],-0.41
same,glycan array binding signal (z-score),[11],-1.06
same,glycan array binding signal (z-score),[12],0.076
same,glycan array binding signal (z-score),[13],-1.08
same,glycan array binding signal (z-score),[14],-0.728
same,glycan array binding signal (z-score),[15],0.438
same,glycan array binding signal (z-score),Gal(b1-3)GlcNAc6S,-0.704
same,glycan array binding signal (z-score),[16],-0.236
same,glycan array binding signal (z-score),[17],1.14
same,glycan array binding signal (z-score),[18],0.327
same,glycan array binding signal (z-score),[19],-0.195
same,glycan array binding signal (z-score),[20],-0.879
same,glycan array binding signal (z-score),[21],0.013
same,glycan array binding signal (z-score),[22],3.16
same,glycan array binding signal (z-score),[23],0.081
same,glycan array binding signal (z-score),[24],-0.572
same,glycan array binding signal (z-score),[25],-0.654
same,glycan array binding signal (z-score),[26],-0.532
same,glycan array binding signal (z-score),Gal(b1-4)Gal,1.31
same,glycan array binding signal (z-score),[27],-0.271
same,glycan array binding signal (z-score),[28],-0.365
